# Laboratory results published in the supplement of paper PMC8728848.
# The list shows a part of the results.
# B1: PGP3 (Chlamydia trachomatis), P0CE18 (protein)
# chain: MGNSGFYLYNTQNCVFADNIKVGQMTEPLKDQQIILGTTSTPVAAKMTASDGISLTVSNNPSTNASITIGLDAEKAYQLILEKLGDQILGGIADTIVDSTVQDILDKITTDPSLGLLKAFNNFPITNKIQCNGLFTPRNIETLLGGTEIGKFTVTPKSSGSMFLVSADIIASRMEGGVVLALVREGDSKPYAISYGYSSGVPNLCSLRTRIINTGLTPTTYSLRVGGLESGVVWVNALSNGNDILGITNTSNVSFLEVIPQTNA
# Experiments:
# Assay in all cases: glycan array binding signal (z-score within array); higher = stronger binding
# Details in all cases: glycan notation: IUPAC condensed, linker removed
# [1] = biological target: Gal(b1-4)GlcNAc(b1-3)[Gal(b1-4)GlcNAc(b1-6)]GalNAc
# Procedure, shortened: (§1)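 Glycan array binding is given as a within-array Z-score, which can be read as non-binding when negative. The arrays, 3228 of them, came from the Consortium for Functional Glycomics database and were retained only where the protein sequence was available. Z-scores were averaged across arrays of the same protein sequence at different concentrations or buffers and across linkers.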
# [2] = biological target: Gal(b1-4)GlcNAc(b1-3)[GlcNAc(b1-6)]Gal(b1-4)GlcNAc
# Procedure, shortened: as §1
# [3] = biological target: Gal(b1-4)GlcNAc(b1-6)Gal(b1-4)GlcNAc
# Procedure, shortened: as §1
# [4] = biological target: Gal(b1-4)GlcNAc(b1-6)GalNAc
# Procedure, shortened: as §1
# [5] = biological target: Gal(b1-4)GlcNAc(b1-6)[Gal(b1-3)]GalNAc
# Procedure, shortened: as §1
# [6] = biological target: Gal(b1-6)Gal
# Procedure, shortened: as §1
# [7] = biological target: Gal3S(b1-3)GalNAc
# Procedure, shortened: as §1
# [8] = biological target: Gal3S(b1-3)GlcNAc
# Procedure, shortened: as §1
# [9] = biological target: Gal3S(b1-3)[Fuc(a1-4)]GlcNAc
# Procedure, shortened: as §1
# [10] = biological target: Gal3S(b1-4)Glc
# Procedure, shortened: as §1
# [11] = biological target: Gal3S(b1-4)Glc6S
# Procedure, shortened: as §1
# [12] = biological target: Gal3S(b1-4)GlcNAc
# Procedure, shortened: as §1
# [13] = biological target: Gal3S(b1-4)GlcNAc6S
# Procedure, shortened: as §1
# [14] = biological target: Gal3S(b1-4)[Fuc(a1-3)]Glc
# Procedure, shortened: as §1
# [15] = biological target: Gal3S(b1-4)[Fuc(a1-3)]Glc6S
# Procedure, shortened: as §1
# [16] = biological target: Gal3S4S(b1-4)GlcNAc
# Procedure, shortened: as §1
# [17] = biological target: Gal3S6S(b1-4)GlcNAc
# Procedure, shortened: as §1
# [18] = biological target: Gal3S6S(b1-4)GlcNAc6S
# Procedure, shortened: as §1
# [19] = biological target: Gal4S(b1-4)GlcNAc
# Procedure, shortened: as §1
# [20] = biological target: Gal4S6S(b1-4)GlcNAc
# Procedure, shortened: as §1
# [21] = biological target: Gal6S(b1-3)GlcNAc
# Procedure, shortened: as §1
# [22] = biological target: Gal6S(b1-3)GlcNAc6S
# Procedure, shortened: as §1
# [23] = biological target: Gal6S(b1-4)Glc
# Procedure, shortened: as §1
# [24] = biological target: Gal6S(b1-4)Glc6S
# Procedure, shortened: as §1
# [25] = biological target: Gal6S(b1-4)GlcNAc
# Procedure, shortened: as §1
# [26] = biological target: Gal6S(b1-4)GlcNAc6S
# Procedure, shortened: as §1
# [27] = biological target: GalNAc(a1-3)Gal
# Procedure, shortened: as §1
# [28] = biological target: GalNAc(a1-3)GalNAc
# Procedure, shortened: as §1
# [29] = biological target: GalNAc(a1-3)GalNAc(b1-3)Gal(a1-4)Gal(b1-4)Glc
# Procedure, shortened: as §1
# [30] = biological target: GalNAc(a1-3)GalNAc(b1-3)Gal(a1-4)Gal(b1-4)GlcNAc
# Procedure, shortened: as §1
# [31] = biological target: GalNAc(b1-3)Gal
# Procedure, shortened: as §1
# [32] = biological target: GalNAc(b1-3)Gal(a1-4)Gal(b1-4)GlcNAc
# Procedure, shortened: as §1
# [33] = biological target: GalNAc(b1-3)Gal(a1-4)Gal(b1-4)GlcNAc(b1-3)Gal(b1-4)Glc
# Procedure, shortened: as §1
# [34] = biological target: GalNAc(b1-3)Gal(a1-6)Gal(b1-4)Glc
# Procedure, shortened: as §1
# [35] = biological target: GalNAc(b1-3)GalNAc
# Procedure, shortened: as §1
# [36] = biological target: GalNAc(b1-4)Gal(b1-4)Glc
# Procedure, shortened: as §1
# [37] = biological target: GalNAc(b1-4)GlcNAc
# Procedure, shortened: as §1
# [38] = biological target: GalNAc(b1-4)GlcNAc(b1-2)Man(a1-3)[GalNAc(b1-4)GlcNAc(b1-2)Man(a1-6)]Man(b1-4)GlcNAc(b1-4)GlcNAc
# Procedure, shortened: as §1
binder,measurement,setting,value
B1,glycan array binding signal (z-score),[1],-0.523
same,glycan array binding signal (z-score),[2],-1.03
same,glycan array binding signal (z-score),[3],-0.881
same,glycan array binding signal (z-score),[4],-1.12
same,glycan array binding signal (z-score),[5],-0.461
same,glycan array binding signal (z-score),[6],0.036
same,glycan array binding signal (z-score),[7],-0.343
same,glycan array binding signal (z-score),[8],0.438
same,glycan array binding signal (z-score),[9],-0.174
same,glycan array binding signal (z-score),[10],-0.636
same,glycan array binding signal (z-score),[11],-0.222
same,glycan array binding signal (z-score),[12],-0.219
same,glycan array binding signal (z-score),[13],-0.312
same,glycan array binding signal (z-score),[14],1.69
same,glycan array binding signal (z-score),[15],-1.96
same,glycan array binding signal (z-score),[16],0.096
same,glycan array binding signal (z-score),[17],-1.04
same,glycan array binding signal (z-score),[18],-1.31
same,glycan array binding signal (z-score),[19],-0.79
same,glycan array binding signal (z-score),[20],1.01
same,glycan array binding signal (z-score),[21],-0.786
same,glycan array binding signal (z-score),[22],0.068
same,glycan array binding signal (z-score),[23],0.677
same,glycan array binding signal (z-score),[24],1.35
same,glycan array binding signal (z-score),[25],-1.44
same,glycan array binding signal (z-score),[26],-0.202
same,glycan array binding signal (z-score),[27],0.576
same,glycan array binding signal (z-score),[28],-0.476
same,glycan array binding signal (z-score),[29],1.04
same,glycan array binding signal (z-score),[30],0.732
same,glycan array binding signal (z-score),[31],0.914
same,glycan array binding signal (z-score),[32],1.66
same,glycan array binding signal (z-score),[33],1.09
same,glycan array binding signal (z-score),[34],2.89
same,glycan array binding signal (z-score),[35],-0.361
same,glycan array binding signal (z-score),[36],-0.491
same,glycan array binding signal (z-score),[37],-0.87
same,glycan array binding signal (z-score),[38],-0.407

# A different layout for some results above:
binder	measurement	setting	value
B1	glycan array binding signal (z-score)	[14]	1.69
same	glycan array binding signal (z-score)	[15]	-1.96
same	glycan array binding signal (z-score)	[16]	0.096
same	glycan array binding signal (z-score)	[17]	-1.04
same	glycan array binding signal (z-score)	[18]	-1.31
same	glycan array binding signal (z-score)	[19]	-0.79
same	glycan array binding signal (z-score)	[20]	1.01
same	glycan array binding signal (z-score)	[21]	-0.786
same	glycan array binding signal (z-score)	[22]	0.068
same	glycan array binding signal (z-score)	[23]	0.677
same	glycan array binding signal (z-score)	[24]	1.35
